# Data published in patent US9446029B2, “Use of NK-1 receptor antagonists in management of visceral pain” (priority 2010, dated 2016).
# System: dogs
# Experiment: Clinical trial of analgesia and comfort in dogs during and after spay surgery (laparotomy ovariohysterectomy), isoflurane anesthesia (Example 2)
# Settings: maropitant 1 mg/kg SQ or morphine 0.5 mg/kg SQ before anesthesia
compound,measurement,setting,value
"CN1CC[C@]23c4c5ccc(O)c4O[C@H]2[C@@H](O)C=C[C@H]3[C@H]1C5 [Morphine, morphine]",isoflurane anesthesia required during ovary ligation and resection (vaporizer setting),FIG. 2,1.53±0.37%
same,isoflurane anesthesia required during skin closure,"end of surgery, FIG. 4",1.45±0.22%
